From PMC5577446
No constants are given. Whether binding was seen depends on the method and setting. In cells and extracts the contact can be indirect.

Molecular target: endogenous TACC3 in TERT-B cells (human (endogenous in TERT-B)) (UniProt Q9Y6A5)
Test: co-IP; 1 mg whole-cell extract (RT112 asynchronous or synchronized in mitosis by thymidine/nocodazole; TERT-B asynchronous), lysis in 20 mM Tris–Cl pH 7.5, 137 mM NaCl, 1% NP-40; precipitated with 10 µg agarose-conjugated anti-TACC3 (N-terminus, sc22773), 4°C, 2 h; blots with anti-FGFR3 and anti-TACC3

binding: no binding
Substance: FGFR3 (fibroblast growth factor receptor 3) endogenous in TERT-B cells (from UniProt P22607 23-806)
